Among all 300,000 compounds or so, about 3,700 (1.2%) were called active. The inconclusive results got no clear call from the source; some entries with a clear call stand among them for comparison. Calls come from the whole dose curve; tested in HEK293 cells. Where the call is inconclusive, the potency comes from a doubtful curve fit.
Assay: qHTS for Inhibitors of binding or entry into cells for Lassa Virus; note: nearly all actives have a fitted effect of over 50% in size
Conditions: Lassa virus pseudotype entry inhibition, cell reporter; activity change, negative = inhibition: at 37.9 µM (top of the series) unless noted
With `CCOCCCNC(=O)/C(C#N)=C/c1ccc(-c2ccc(S(=O)(=O)N3CCOCC3)cc2)o1` the Potency was inconclusive: 35.5 µM [inhibitor, single point].
For `O=C1COc2ccc(C(=O)COC(=O)CCSc3ccc(Cl)cc3)cc2N1`, the Potency was inconclusive: 8.91 µM [activator, partial curve].
In the case of `CCOc1ccc2nc(SCC(=O)Nc3cc4c(cc3C(C)=O)OCO4)[nH]c2c1`, the “activity change, negative = inhibition” value is reported as inactive: -6.82%.
For `Cc1ccc(-n2nnnc2-c2cnoc2-c2cccc(F)c2)cc1`, the “activity change, negative = inhibition” value was inactive: -3.22%.
In the case of `COc1cc(CNc2ccc(N3CCN(C(C)=O)CC3)cc2)ccc1OCc1ccccc1`, the Potency is reported as inconclusive: 35.5 µM [inhibitor, single point].
With `Cc1ccc(-c2nc3c(c(SCC(=O)N4CCCCC4)n2)Cc2cc(C)ccc2O3)cc1` the “activity change, negative = inhibition” value was inactive: 0.172% [at 46.1 µM].
For `Cc1ccc(-c2nnn(CCC(=O)NC3CCCC3)n2)cc1`, the “activity change, negative = inhibition” value was inactive: 0.0819%.
For `O=C(Nc1ccc(O)c2c(=O)cc(-c3cccc(Cl)c3)oc12)c1ccc(F)cc1`, the Potency was inconclusive: 0.0791 µM [inhibitor, full curve, poor fit].
In the case of `CN1C(=O)N(CC(=O)Nc2cccc(S(=O)(=O)N(C)c3ccccc3)c2)C(=O)C12CCCCC2`, the Potency is reported as inconclusive: 35.5 µM [inhibitor, single point].
In the case of `Cn1ccnc1Sc1nc(Nc2cccc(Cl)c2)nc(N2CCOCC2)n1`, the “activity change, negative = inhibition” value is reported as inactive: 6.01%.
For `Cc1ccc(Nc2c([N+](=O)[O-])cc(C(=O)N3CC(=O)Nc4ccccc43)cc2[N+](=O)[O-])c(C)c1`, the Potency was inconclusive: 2.82 µM [inhibitor, partial curve, poor fit].
In the case of `CN1CCN(c2nc(NCc3ccco3)nc(N)c2[N+](=O)[O-])CC1`, the “activity change, negative = inhibition” value is reported as inactive: 9.6%.
For `COc1ccc(CC(=O)OCC(=O)NCc2ccc3c(c2)OCO3)cc1OC`, the “activity change, negative = inhibition” value was inactive: -20.9%.
For `Cc1ccc(OCC(=O)Nc2ccc(C)c(F)c2)c([N+](=O)[O-])n1`, the Potency was inconclusive: 0.794 µM [activator, full curve, poor fit].
For `Cc1cc(C)nc(N2CCCC(C(=O)NC3CCCC3)C2)n1` (configuration not stated), the “activity change, negative = inhibition” value was inactive: 0.239%.
For `Nc1nc(NCc2ccccc2)nc(NCc2ccccc2)c1[N+](=O)[O-]`, the “activity change, negative = inhibition” value was inactive: 5.03%.
With `COc1ccc(NC(=S)N2CCN(Cc3ccc(C)cc3)CC2)cc1` the Potency was inconclusive: 20 µM [inhibitor, single point].
For `O=C(CSCc1ccccc1)Nc1ccc(F)cc1F`, the Potency was inconclusive: 1.12 µM [activator, full curve, poor fit].
In the case of `CCOC(=O)c1c(NC(=O)CS(=O)(=O)c2cn(CC)c3ccccc23)sc2c1CCCC2`, the “activity change, negative = inhibition” value is reported as inactive: -8.96%.
In the case of `O=C1CN(C(=O)c2ccc(Cl)c([N+](=O)[O-])c2)c2ccccc2N1`, the Potency is reported as inconclusive: 35.5 µM [inhibitor, single point].
With `CCCCCOc1ccc(C(=O)OCC(=O)Nc2cc(C)on2)cc1` the “activity change, negative = inhibition” value was inactive: -3.72%.
For `C/C=C/c1ccc(OCC(=O)Nc2cc(OC)c(OC)c(OC)c2)c(OC)c1`, the Potency was active: 10 µM.
For `O=[N+]([O-])c1ccc2nc(-c3ccc(Cl)cc3)[nH]c2c1`, the Potency was inconclusive: 29.1 µM [inhibitor, single point].
For `CC(C)(C)c1ccc(Oc2ccc(N)cc2)cc1`, the Potency was active: 0.651 µM.
In the case of `COc1cccc(Cn2cccc(NC(=O)NCc3ccccc3)c2=O)c1`, the Potency is reported as inconclusive: 7.94 µM [inhibitor, partial curve, poor fit].
In the case of `CN(CC(=O)NC1(C)CCS(=O)(=O)C1)S(=O)(=O)c1ccc(Cl)cc1` (configuration not stated), the “activity change, negative = inhibition” value is reported as inactive: 23.2%.
In the case of `O=C(/C=C/c1ccc(Cl)cc1Cl)c1nc2ccccc2[nH]1`, the “activity change, negative = inhibition” value is reported as inactive: -18.4%.
With `O=C(N/N=C/CCc1ccccc1)C1CCCCC1` the “activity change, negative = inhibition” value was inactive: 5.29%.
In the case of `Nc1nnc(SCc2ccc([N+](=O)[O-])cc2)s1`, the “activity change, negative = inhibition” value is reported as inactive: -0.673% [at 46.1 µM].
For `Cc1ccc(S(=O)(=O)N(C)C)cc1NC(=O)COC(=O)CC1CCCC1`, the “activity change, negative = inhibition” value was inactive: 7.11%.
In the case of `CCCCn1c(=O)[nH]c(=O)c2c1nc(-c1ccccn1)n2CC`, the Potency is reported as inconclusive: 6.31 µM [inhibitor, partial curve, poor fit].
With `Cn1c2ccccc2c2cc(/C=N/NC(=O)c3ccc(N)cc3)ccc21` the Potency was inconclusive: 7.08 µM [inhibitor, partial curve].
For `c1ccc(-c2nc(N3CCCCCC3)c3ccccc3n2)nc1`, the Potency was active: 3.98 µM.
In the case of `Cc1nn(-c2ccccc2)c(/N=C/c2ccc(O)cc2)c1-c1ccccc1`, the Potency is reported as inconclusive: 35.5 µM [inhibitor, single point].
With `O=C1CC(c2nc3ccccc3n2CCCCOc2ccccc2)CN1c1ccccc1Cl` (configuration not stated) the Potency was inconclusive: 22.4 µM [inhibitor, single point].
For `CCOc1ccc(/C=N/OCC(=O)NCc2ccco2)cc1`, the Potency was inconclusive: 35.5 µM [inhibitor, single point].
With `C=CCP1(=O)O[C@H](C=C)C[C@H](C=C)O1` (some centres not stated) the Potency was inconclusive: 0.445 µM [activator, partial curve, poor fit].
With `CSc1ccccc1C(=O)Nc1cccc([N+](=O)[O-])c1` the Potency was inconclusive: 1.26 µM [inhibitor, single point].
In the case of `O=C1c2ccc(-c3nc4ccccc4o3)cc2C(=O)N1Cc1ccccc1`, the “activity change, negative = inhibition” value is reported as inactive: -1.04%.
In the case of `CCOC(=O)c1[nH]c(C)c(C(=O)NCc2ccccn2)c1C`, the Potency is reported as inconclusive: 4.61 µM [activator, full curve, poor fit].
In the case of `O=C(CSC1=NCCN1)NC(c1ccccc1)c1ccccc1`, the Potency is reported as inconclusive: 35.5 µM [inhibitor, single point].
For `O=c1cc(-c2ccccc2)[nH]n1-c1ccccc1`, the “activity change, negative = inhibition” value was inactive: -5.64% [at 46.1 µM].
In the case of `Cc1oc(-c2ccc(Cl)cc2)nc1CN1CCC(C(=O)NCc2cccs2)CC1`, the Potency is reported as inconclusive: 0.461 µM [activator, full curve, poor fit].
In the case of `O=C(Cc1c[nH]c2ccccc12)NCc1ccc(Cl)cc1Cl`, the “activity change, negative = inhibition” value is reported as inactive: 1.35%.
With `C=CCNS(=O)(=O)c1ccc(OCC(=O)OCC)cc1` the Potency was inconclusive: 1.83 µM [activator, partial curve, poor fit].
In the case of `CC(C)NC(=O)Nc1ccc2c(c1)N(C)C(=O)c1ccccc1S2`, the Potency is reported as inconclusive: 3.16 µM [inhibitor, full curve].
For `O=C(NCCc1ccccc1)c1ccc2c(c1)N(Cc1ccccc1Cl)C(=O)c1ccccc1S2`, the “activity change, negative = inhibition” value was inactive: -25.6% [at 46.1 µM].
For `O=C(COC(=O)C1(c2cccc(F)c2)CCCC1)NCc1ccc2c(c1)OCO2`, the Potency was inconclusive: 5.62 µM [inhibitor, single point].
With `Cn1cc(C2CC(c3ccccc3)=NN2C(=O)c2ccccc2)c2ccccc21` (configuration not stated) the Potency was inconclusive: 15.8 µM [inhibitor, single point].
For `Cc1c(C(=O)N2CCCC2)oc2c1-c1nn(CC(=O)NCc3cccc(Br)c3)cc1CC2`, the Potency was inconclusive: 6.31 µM [inhibitor, single point].
With `CCOc1ccccc1OCCCC(=O)N(CC)CC(=O)Nc1c(F)cccc1F` the Potency was inconclusive: 0.316 µM [inhibitor, partial curve, poor fit].
For `Cc1ccc(S(=O)(=O)N2CCOCC2)cc1NC(=O)COC(=O)C1COc2ccccc2O1` (configuration not stated), the Potency was inconclusive: 31.6 µM [activator, partial curve, poor fit].
For `Cc1ccccc1Cn1c(O)c(N=NC(=S)Nc2ccccc2F)c2ccccc21`, the Potency was inconclusive: 0.146 µM [inhibitor, full curve, poor fit].
In the case of `COc1ccccc1-n1c(=O)c(C#N)c(-c2ccc([N+](=O)[O-])cc2)c2cc(C(=O)c3cc(F)ccc3O)cnc21`, the Potency is reported as inconclusive: 31.6 µM [activator, partial curve, poor fit].
For `O=c1c2ccccc2nc(SCc2cc(F)cc3c2OCOC3)n1Cc1ccco1`, the Potency was inconclusive: 23.1 µM [inhibitor, partial curve, poor fit].
With `O=C1[C@@H]2C(c3cccnc3)=NO[C@@H]2C(=O)N1c1ccc2ccccc2c1` the “activity change, negative = inhibition” value was inactive: -8.23%.
In the case of `O=C(OCc1cccc([N+](=O)[O-])c1)c1ccc[nH]c1=O`, the “activity change, negative = inhibition” value is reported as inactive: 16.7% [at 46.1 µM].
In the case of `Cc1ccc(SCc2cn3c(C)csc3n2)cc1`, the Potency is reported as inconclusive: 14.6 µM [inhibitor, single point].
With `Clc1ccc2nc(-c3ccc(Br)s3)cn2c1` the Potency was active: 8.2 µM.
With `Cc1ccc(CNC(=O)CN(C(=O)C2(C)CC(=O)N=C3C=CC=CN32)c2ccccc2F)cc1` (configuration not stated) the “activity change, negative = inhibition” value was inactive: -15.3% [at 46.1 µM].
With `CC(=O)Nc1ccc(Sc2ccc([N+](=O)[O-])o2)cc1` the Potency was inconclusive: 8.91 µM [inhibitor, partial curve, poor fit].
With `O=C(NCc1ccc2c(c1)OCO2)c1ccc(COc2cccc(Cl)c2)o1` the Potency was inconclusive: 11.2 µM [inhibitor, partial curve, poor fit].
With `Cc1ccc(C)c(OCc2cc(C(=O)N3CCN(c4ccccc4C)CC3C)no2)c1` (configuration not stated) the activity change, negative = inhibition was inconclusive: 4.6% [activator] [at 46.1 µM].
In the case of `CCCOC(=O)c1ccc(NC(=O)c2cc(OC)c(OC)c(OC)c2Br)cc1`, the Potency is reported as inconclusive: 20.6 µM [inhibitor, single point].
For `Cc1ccc(CN=C(N)Nc2nc(C)cc(C)n2)cc1`, the “activity change, negative = inhibition” value was inactive: -22.5%.
In the case of `CCCCNC(=O)c1cc2ccccc2s1`, the “activity change, negative = inhibition” value is reported as inactive: -2.12%.
For `COc1ccc(-n2nc(C(=O)NCC(=O)Nc3cc(C)ccc3OC)c3ccccc3c2=O)c(OC)c1`, the Potency was active: 6.31 µM.
With `Cc1ccc(NC(=O)c2ccc3nc[nH]c3c2)c(O)c1` the “activity change, negative = inhibition” value was inactive: 19.2%.
In the case of `O=C(CCl)Nc1cccn2ncnc12`, the Potency is reported as inconclusive: 35.5 µM [inhibitor, single point].
For `Cc1ccc(C(=O)N/N=C\c2cccn2C)cn1`, the Potency was inconclusive: 29.1 µM [activator, partial curve, poor fit].
For `CCn1c2ccccc2c2cc(NC(=O)c3cc(OC)c(OC)c(OC)c3)ccc21`, the Potency was inconclusive: 1.12 µM [inhibitor, full curve].
For `CCOC(=O)CNc1c(-c2ccc(O)cc2)nc2ccc(Cl)cn12`, the “activity change, negative = inhibition” value was inactive: -23.1%.

Reference: PubChem BioAssay AID540256 (National Center for Advancing Translational Sciences (NCATS), 2011)
% is set by controls: 0 for no effect and ±100 for the full control effect; potency is the fitted concentration of half-maximal effect.
